The list shows a part of the results. The main result of the screen is listed elsewhere. These columns were measured beside it and carry no call. The list favours compounds with an active or inconclusive main result. Potencies come from curve fits of mixed quality, noted in brackets.
Test: qHTS Assay for Modulators of Lamin A Splicing
Details: HeLa LMNA splicing GFP/RFP minigene ratio, 48 h
Outline: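 S3 HeLa stable clones carrying a lamin A-EGFP splicing minigene plus DsRed2 were seeded at 600 cells/well in Opti-MEM with 2% FBS, pin-dosed and incubated 48 h at 37°C. Acumen cytometry (488 nm) gave the GFP/RFP total-intensity ratio.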

[1] = measured here: RFP viability control channel
[2] = measured here: GFP splicing reporter channel

SMILES	AC50 [1]	AC50 [2]
CN(C)c1ccc(NS(=O)(=O)c2cccc(Cl)c2)cc1	8.91 µM [rising, partial curve]	
Cc1cc(C)n(CCc2nc(-c3cc4ccccc4o3)cs2)n1	11.2 µM [rising, partial curve]	3.98 µM [rising, single point]
CCc1nnc(NC(=O)CSc2nccn2-c2cc(C)cc(C)c2)s1	31.6 µM [rising, single point]	
O=C1/C(=C/c2ccccc2)Oc2cc(OC(=O)N3CCOCC3)ccc21	0.316 µM [rising, full curve, poor fit]	1.78 µM [rising, partial curve, poor fit]
O=C(Nc1nc(-c2ccc(F)c(F)c2)cs1)c1ccc(OCC2CCCO2)cc1 (configuration not stated)	5.62 µM [rising, partial curve]	5.62 µM [rising, partial curve]
COc1ccc(CNC(=O)C(C(C)C)N2Cc3ccccc3C2=O)cc1 (configuration not stated)	0.0355 µM [rising, full curve, poor fit]	0.0355 µM [rising, full curve, poor fit]
Cc1ccc(CC(=O)NCc2ccc(F)cc2)cc1	2.82 µM [rising, full curve]	
Cc1ccc(C)c(NC(=O)c2cc(S(=O)(=O)NCCC3=CCCCC3)ccc2F)c1	1.41 µM [falling, full curve, poor fit]	0.0126 µM [falling, full curve, poor fit]
O=C(CN1CCN(c2ccccn2)CC1)N1c2ccccc2CCc2ccccc21	12.6 µM [rising, partial curve, poor fit]	
O=C(N/N=C/c1ccc(Br)o1)c1cc([N+](=O)[O-])cc([N+](=O)[O-])c1	0.00501 µM [falling, full curve, poor fit]	0.00501 µM [falling, full curve, poor fit]
CCC(=O)Nc1cc(ON=C(C)C)cc([N+](=O)[O-])c1		12.6 µM [rising, single point]
O=C(C1CCCN(S(=O)(=O)c2cnc[nH]2)C1)N1CCN(c2ccc(Cl)cc2)CC1 (configuration not stated)	15.8 µM [rising, partial curve]	2.82 µM [rising, partial curve]
Cc1ccc(NC(=O)CN(C)S(=O)(=O)c2cccc3nsnc23)cc1C	31.6 µM [rising, single point]	
Cc1cccc(CNc2ccnc(-c3cccc(C#N)c3)n2)c1	17.8 µM [falling, partial curve]	12.6 µM [falling, partial curve]

One compound at a time, from the list above:
CN(C)c1ccc(NS(=O)(=O)c2cccc(Cl)c2)cc1 in the list: AC50 [1]: 8.91 µM [rising, partial curve]
Cc1ccc(C)c(NC(=O)c2cc(S(=O)(=O)NCCC3=CCCCC3)ccc2F)c1 in the list: AC50 [1]: 1.41 µM [falling, full curve, poor fit]; AC50 [2]: 0.0126 µM [falling, full curve, poor fit]
